The supplement of paper PMC12462457
Where a name gives a salt, the structure may show the parent alone. ± gives the standard deviation of the averaged measurements. Some of the results follow. Single values are uncertain here, since repeats match poorly.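 Imaging of DAPI-stained nuclei was used to count cells; those without phalloidin-stained cytoplasm were treated as dead and excluded. Every well's count was divided by the median of same-plate vehicle wells, then averaged across two replicate plates.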

System: OVCAR8
Assay: cell count relative to DMSO vehicle (fold change); higher = more surviving senescent cells (less killing)
Conditions: senescence inducer: cisplatin 10 µM 48 h, then 6 d recovery (CP senescent), exposure time 24 h

Row | Compound | cell count (compound dose 1 µM) | cell count (compound dose 5 µM)
1 | COc1cccc2c1C(=O)c1c(O)c3c(c(O)c1C2=O)C[C@@](O)(C(=O)CO)C[C@@H]3O[C@H]1C[C@H](N)[C@@H](O)[C@H](C)O1 [Epirubicin (hydrochloride)] | 0.634 ± 0.18 | 0.523 ± 0.023
2 | O=[N+]([O-])c1ccc(Nc2ccccc2-c2ccccc2)c2nonc12 | 0.955 ± 0.09 | 0.857 ± 0.14
3 | COc1ccc2[nH]c3c(-c4cccc5ccccc45)nccc3c2c1 | 0.712 ± 0.018 | 0.63 ± 0.0071
4 | O=C(N[C@H]1CCc2cc(F)cc(F)c2NC1=O)c1n[nH]c(Cc2ccccc2)n1 | 1.29 ± 0.14 | 1.009 ± 0.0042
5 | N#Cc1c(N2CCCC2)nc(N)c2c(N)nc(N3CCCC3)cc12 | 0.987 ± 0.094 | 0.915 ± 0.045
6 | COC(=O)CC[C@H](NC(=O)[C@H](Cc1c[nH]c2ccccc12)NC(=O)OCc1ccccc1)C(=O)N[C@@H](Cc1cnc[nH]1)C(=O)N[C@@H](CC(=O)OC)C(=O)CF | 1.13 ± 0.026 | 0.851 ± 0.073
7 | Oc1ccc(-c2nc(-c3ccc(F)cc3)c(-c3ccncc3)[nH]2)cc1 | 1.11 ± 0.098 | 1.01 ± 0.16
8 | CC(C)CN(CC(=O)N1CCN(CC(OCc2ccc3ccccc3c2)c2ccc(Cl)cc2Cl)CC1)CC(C)C (stereo not given) [LYN-1604 (dihydrochloride)] | 1.2 ± 0.078 | 0.948 ± 0.29
9 | O=C(O)CCCCC(CCSCc1ccccc1)SCc1ccccc1 (stereo not given) [Devimistat] | 1.14 ± 0.11 | 0.865 ± 0.16
10 | O=C(O)C1=CO[C@@H](O[C@@H]2O[C@H](CO)[C@@H](O)[C@H](O)[C@H]2O)[C@@H]2C(CO)=CC[C@H]12 [Geniposidic acid] | 0.995 ± 0.15 | 1.04 ± 0.03
11 | O=C(CCCCCCC(=O)Nc1ccc(CN[C@H](C(=O)OC2CCCC2)c2ccccc2)cc1)NO [Tefinostat] | 0.963 ± 0.096 | 0.453 ± 0.14
12 | CCCCCNC(=N)N/N=C/c1c[nH]c2ccc(OC)cc12 | 0.752 ± 0.042 | 0.831 ± 0.013
13 | COc1c(C)c2c(c(O)c1C/C=C(\C)CCC(=O)O)C(=O)OC2 | 1.18 ± 0.29 | 0.715 ± 0.38
14 | Cc1cc(Cl)ccc1OCCCC(=O)NO [Droxinostat] | 0.886 ± 0.083 | 0.418 ± 0.2
15 | O=C(c1ccc(/C=C/c2n[nH]c3ccccc23)cc1)N1CCNCC1 | 1.43 ± 0.24 | 1.38 ± 0.15
16 | C/C(=C\C(=O)Nc1ccccc1C(=O)O)c1ccc2ccccc2c1 | 1.07 ± 0.28 | 1.19 ± 0.092
17 | O=C1c2ccccc2-c2nc3nnnn3nc21.O=C1c2ccccc2-c2nn3nnnc3nc21 | 0.0485 ± 0.018 | 0.0595 ± 0.016
18 | Oc1cc2c(cc1O)CN(C(=S)NCCc1ccc(Cl)cc1)CCC2 [Capsazepine] | 1.21 ± 0.13 | 0.932 ± 0.086

Row | Compound | cell count (compound dose 1 µM) | cell count (compound dose 5 µM)
19 | CC(=O)NC1=NN(C(C)=O)C(C)(c2ccccc2)S1 (racemic) [K858 (Racemic)] | 1.16 ± 0.073 | 1.089 ± 0.0021
20 | O=C(O)COc1ccccc1C(Nc1ccccn1)c1cc(Cl)c2cccnc2c1O (stereo not given) | 0.585 ± 0.24 | 0.805 ± 0.022
21 | O=C1CCC[C@@H]2[C@H]3CCC[N+]4([O-])CCC[C@@H](CN12)[C@@H]34 (stereo not given in full) [Oxymatrine] | 1.03 ± 0.011 | 0.614 ± 0.075
22 | Cc1c(C)c2c(c(C)c1O)CCC(C)(C(=O)O)O2 (stereo not given) | 0.803 ± 0.044 | 0.925 ± 0.26
23 | CC[C@H](C)C(=O)O[C@H]1C[C@@H](C)C=C2C=C[C@H](C)[C@H](CC[C@@H]3C[C@@H](O)CC(=O)O3)[C@H]21 [Lovastatin] | 0.903 ± 0.1 | 0.459 ± 0.12
24 | O=c1cc(-c2ccccc2)oc2cc(O)c(O)c(O)c12 | 1.08 ± 0.28 | 0.843 ± 0.057
25 | CCN(CC)CCCNc1cc2nc3n(c(=O)c2cc1F)CC/C3=C\c1ccc(C(C)C)cc1 | 1.14 ± 0.18 | 1.13 ± 0.041
26 | O=C(O[C@@H]1O[C@@H]2COC(=O)c3cc(O)c(O)c(O)c3-c3c(cc(O)c(O)c3O)C(=O)O[C@H]([C@H]1O)[C@@H]2O)c1cc(O)c(O)c(O)c1 [Corilagin] | 1.2 ± 0.18 | 0.947 ± 0.052
27 | COC(=O)Nc1ccc(-c2nc(N3CCOCC3)c3cnn(C4CCN(C(=O)OC)CC4)c3n2)cc1 | 1.08 ± 0.16 | 0.826 ± 0.13
28 | C[C@H](CC(=O)C[C@@H](C)[C@H]1C[C@H](O)[C@@]2(C)C3=C(C(=O)C[C@]12C)[C@@]1(C)CCC(=O)C(C)(C)[C@@H]1C[C@@H]3O)C(=O)O [Ganoderic acid A] | 1.11 ± 0.019 | 0.832 ± 0.053
29 | COc1cc([C@H]2C(C#N)=C(N)Oc3c2ccc(N)c3N)cc(Br)c1OC [Crolibulin] | 0.874 ± 0.075 | 0.787 ± 0.1
30 | CC(C)n1c(/C=C/C(O)CC(O)CC(=O)O)c(-c2ccc(F)cc2)c2ccccc21 (stereo not given) [Fluvastatin (sodium)] | 1.13 ± 0.21 | 0.583 ± 0.14
31 | COc1ccc2c(c1)-c1nn(CCCN(C)C)c3ccc([N+](=O)[O-])c(c13)N2 [Pyrazoloacridine] | 1.21 ± 0.052 | 0.955 ± 0.26
32 | O=C(O)c1cc(=O)cc(C(=O)O)o1 [Chelidonic acid] | 0.939 ± 0.0099 | 0.663 ± 0.22
33 | NC(N)=NC(=O)c1nc(Cl)c(N2CCCCCC2)nc1N [5-(N,N-Hexamethylene)-amiloride] | 0.853 ± 0.024 | 0.692 ± 0.2
34 | C[C@H](CCC(=O)NCC(=O)O)[C@H]1CC[C@H]2[C@@H]3[C@H](O)C[C@@H]4C[C@H](O)CC[C@]4(C)[C@H]3CC[C@]12C [Glycochenodeoxycholic acid (sodium salt)] | 0.956 ± 0.13 | 0.812 ± 0.19
35 | C[C@H](CCC(=O)NCC(=O)O)[C@H]1CC[C@H]2[C@@H]3[C@H](O)C[C@@H]4C[C@H](O)CC[C@]4(C)[C@H]3CC[C@]12C [Glycochenodeoxycholic acid] | 1.13 ± 0.18 | 0.599 ± 0.45

Rewritten in markdown: entries from further up

| Row | Compound | cell count (compound dose 1 µM) | cell count (compound dose 5 µM) |
| --- | --- | --- | --- |
| 28 | C[C@H](CC(=O)C[C@@H](C)[C@H]1C[C@H](O)[C@@]2(C)C3=C(C(=O)C[C@]12C)[C@@]1(C)CCC(=O)C(C)(C)[C@@H]1C[C@@H]3O)C(=O)O [Ganoderic acid A] | 1.11 ± 0.019 | 0.832 ± 0.053 |
| 30 | CC(C)n1c(/C=C/C(O)CC(O)CC(=O)O)c(-c2ccc(F)cc2)c2ccccc21 (stereo not given) [Fluvastatin (sodium)] | 1.13 ± 0.21 | 0.583 ± 0.14 |
| 31 | COc1ccc2c(c1)-c1nn(CCCN(C)C)c3ccc([N+](=O)[O-])c(c13)N2 [Pyrazoloacridine] | 1.21 ± 0.052 | 0.955 ± 0.26 |
